From article doi:10.1101/616896
Results are given in words; binding and its absence hold for the method and conditions named. Where a sequence is shown, tags or fusion partners need not be part of it.

Target: T1, CT288 (BACTH fusion) (C. trachomatis serovar L2) (UniProt O84290)
T1 sequence: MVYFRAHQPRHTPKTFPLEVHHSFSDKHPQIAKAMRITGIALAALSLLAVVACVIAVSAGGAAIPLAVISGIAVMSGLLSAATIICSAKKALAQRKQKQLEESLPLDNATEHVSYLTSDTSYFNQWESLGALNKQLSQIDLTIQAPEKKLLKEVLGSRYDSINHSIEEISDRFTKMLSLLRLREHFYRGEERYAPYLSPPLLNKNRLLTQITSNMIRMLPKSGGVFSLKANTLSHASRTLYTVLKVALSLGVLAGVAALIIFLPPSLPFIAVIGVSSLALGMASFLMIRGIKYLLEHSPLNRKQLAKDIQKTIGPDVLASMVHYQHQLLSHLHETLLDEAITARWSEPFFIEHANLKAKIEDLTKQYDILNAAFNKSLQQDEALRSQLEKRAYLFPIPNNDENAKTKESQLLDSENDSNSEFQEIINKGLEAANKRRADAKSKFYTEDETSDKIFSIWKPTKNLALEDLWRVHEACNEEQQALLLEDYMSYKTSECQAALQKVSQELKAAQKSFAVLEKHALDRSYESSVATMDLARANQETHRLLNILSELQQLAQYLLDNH
Test: two-hybrid

LRRF1 (BACTH fusion) (human)
binding: no binding
